No constants are given. Whether binding was seen depends on the method and setting. In cells and extracts the contact can be indirect. Some entries that bind do so weakly or less than the wild type.
Molecular target: BTB and CNC homology 1 (BACH1) (human (endogenous in KYSE150 and KYSE450)) (UniProt O14867)
Assay: co-IP; nuclear lysates (500 ug) of KYSE150 and KYSE450 cells incubated overnight at 4 C with 2 ug anti-BAF53A or anti-BACH1 antibody, protein A/G magnetic beads, western blot

Sequences of proteins named here, by UniProt entry; tags and fusion partners are left off.
UniProt O14867: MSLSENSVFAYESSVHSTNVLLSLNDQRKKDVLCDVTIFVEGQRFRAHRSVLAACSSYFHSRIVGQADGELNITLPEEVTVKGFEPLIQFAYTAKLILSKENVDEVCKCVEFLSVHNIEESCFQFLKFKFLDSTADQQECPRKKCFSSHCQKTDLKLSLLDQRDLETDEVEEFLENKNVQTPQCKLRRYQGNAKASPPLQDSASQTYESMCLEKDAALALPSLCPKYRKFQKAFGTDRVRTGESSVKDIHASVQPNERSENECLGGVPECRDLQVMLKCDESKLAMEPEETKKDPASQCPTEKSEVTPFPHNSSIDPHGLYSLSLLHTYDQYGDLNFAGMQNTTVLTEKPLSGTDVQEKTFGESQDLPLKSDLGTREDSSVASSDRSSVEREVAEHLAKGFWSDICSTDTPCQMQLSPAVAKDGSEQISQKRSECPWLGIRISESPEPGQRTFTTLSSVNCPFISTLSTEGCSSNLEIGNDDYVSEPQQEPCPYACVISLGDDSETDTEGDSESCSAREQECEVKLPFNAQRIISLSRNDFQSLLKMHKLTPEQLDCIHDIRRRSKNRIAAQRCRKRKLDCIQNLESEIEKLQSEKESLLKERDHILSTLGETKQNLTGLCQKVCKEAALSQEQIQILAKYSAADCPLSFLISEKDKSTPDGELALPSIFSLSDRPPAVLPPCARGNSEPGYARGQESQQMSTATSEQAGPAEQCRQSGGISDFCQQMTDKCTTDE
UniProt O96019: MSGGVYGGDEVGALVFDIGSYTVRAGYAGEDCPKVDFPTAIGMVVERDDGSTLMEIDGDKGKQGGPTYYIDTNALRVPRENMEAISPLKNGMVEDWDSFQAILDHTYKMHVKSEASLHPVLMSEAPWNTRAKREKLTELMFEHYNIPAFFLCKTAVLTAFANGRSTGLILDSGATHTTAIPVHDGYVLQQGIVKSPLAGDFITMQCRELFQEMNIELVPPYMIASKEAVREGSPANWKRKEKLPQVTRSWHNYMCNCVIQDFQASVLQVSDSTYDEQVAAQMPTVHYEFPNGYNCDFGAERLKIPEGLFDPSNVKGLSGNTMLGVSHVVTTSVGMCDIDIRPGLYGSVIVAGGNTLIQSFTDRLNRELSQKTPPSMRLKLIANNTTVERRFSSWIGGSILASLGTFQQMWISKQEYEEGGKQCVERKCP

binding: binds
Substance: BRG1-associated factor 53A (BAF53A) (from UniProt O96019 1-429)
